The source of these data is patent publication US12419871B2, “Biomolecules involved in Alzheimer's disease” (ELECTROPHORETICS LIMITED, priority 2015, dated 2025).

The nature of this data set: TMTcalibrator quantification of regulated proteins in AD CSF versus control. The arrangement: species or system human. The conditions noted are these: CSF of AD patient versus control; non-modified peptides of each protein summed for three control and three AD cases.
Regarding O43353, the “Log2 AD/Control” value was 0.78.
The figure for O43776 is 1.37; for O75190 it is 1.27; for O75367 it is 0.67.
As for P00740, the “Log2 AD/Control” value is given as −0.73.
The figure for P01303 is 0.86.
As for P02100, the “Log2 AD/Control” value is 1.50.
The figure for P02763 is −1.03; for P03950 it is −0.76.
On to P04114, for which the “Log2 AD/Control” value is listed as 0.70.
As to P05067, the “Log2 AD/Control” value came to 0.90.
As for P06241, the “Log2 AD/Control” value was 0.79.
The figure for P07203 is 1.13; for P16157 it is 0.86.
Take P16403: the “Log2 AD/Control” value came out at 1.33.
For the substance P17600, the “Log2 AD/Control” value stood at 0.95.
Take P23471: the “Log2 AD/Control” value was 0.90.
In the case of P24821, the “Log2 AD/Control” value is on record as 0.73.
Take P28066: the “Log2 AD/Control” value came to 1.08.
For the substance P29972, the “Log2 AD/Control” value amounted to 0.90.
As to P31040, the “Log2 AD/Control” value is given as 1.05.
The figure for P31321 is 1.56; for P32119 it is 0.96.
Consider P49006, for which the “Log2 AD/Control” value amounted to 0.95.
On to P50570, for which the “Log2 AD/Control” value was 0.89.
In the case of P60174, the “Log2 AD/Control” value was determined as 1.00.
As for P61129, the “Log2 AD/Control” value is recorded as 1.08.
For the substance P63092, the “Log2 AD/Control” value was determined as 1.00.
Turning to P78371, the “Log2 AD/Control” value is 0.69.
The figure for Q5SW79 is 0.92; for Q5TZA2 it is 0.77; for Q6EMK4 it is 0.80.
Consider Q7LBR1, for which the “Log2 AD/Control” value was 0.66.
On to Q8N8Y2, for which the “Log2 AD/Control” value is listed as 1.66.
Take Q8NI60: the “Log2 AD/Control” value stood at 0.78.
Take Q9BWS9: the “Log2 AD/Control” value was determined as 0.85.
Q9BXJ9: the “Log2 AD/Control” value was determined as 0.95.
Consider Q9BXV9, for which the “Log2 AD/Control” value was found to be 0.70.
Consider Q9HCU4, for which the “Log2 AD/Control” value amounted to 0.68.
For the substance Q9HDB5, the “Log2 AD/Control” value was 0.98.
Take Q9NVH1: the “Log2 AD/Control” value came to 0.94.
The figure for Q9NVJ2 is 0.94.
With Q9NZH0, the “Log2 AD/Control” value worked out at 0.97.
On to Q9P225, for which the “Log2 AD/Control” value was 1.15.
Take Q9UHD9: the “Log2 AD/Control” value was 1.15.
Turning to Q9UQM7, the “Log2 AD/Control” value worked out at 0.81.
Take Q9Y3E1: the “Log2 AD/Control” value is −0.67.
As for Q9Y4C0, the “Log2 AD/Control” value came to 0.93.
The figure for Q9Y6V0 is 0.93.
As for Q53FP2, the “Log2 AD/Control” value came out at 0.87.
Turning to Q96P47, the “Log2 AD/Control” value was found to be 0.66.
Consider Q709C8, for which the “Log2 AD/Control” value was 1.45.
As to Q03013, the “Log2 AD/Control” value is recorded as 1.09.
For Q13283, the “Log2 AD/Control” value is 0.68.
Regarding Q13838, the “Log2 AD/Control” value was 0.85.
As to Q15334, the “Log2 AD/Control” value is reported as 0.74.
As for Q15746, the “Log2 AD/Control” value was determined as 1.08.
For the substance Q16186, the “Log2 AD/Control” value was determined as 1.29.
With Q16878, the “Log2 AD/Control” value is reported as 1.32.
Take Q92777: the “Log2 AD/Control” value is recorded as 0.86.
With Q99250, the “Log2 AD/Control” value was determined as 0.80.
Consider Q99418, for which the “Log2 AD/Control” value is 0.77.
Take Q99523: the “Log2 AD/Control” value came to 0.68.
